{
  "source": "patent US5189159A",
  "about": "“8a-AZA-8a-homoerythromycin cyclic iminoethers” (Merck & Co., Inc., priority 1992, dated 1993)",
  "assay": "isomerization / stability of 9,12-epoxy isomers",
  "type": "physicochemical",
  "details": "chloroform-d solution, room temperature, several hours",
  "description": "As previously noted, Beckmann rearrangement of oxime (III) under anhydrous conditions leads to a product mixture comprised of the 6,9- and 9,12-bridged iminoethers (VI) and (VII). The 9,12-bridged product, which is formed by internal trapping of the intermediate nitrilium species by the hydroxyl group at C-12, is initially isolated as a mixture of major and minor forms that are isomeric about the imino double bond. The initial mixture of isomers equilibrates at room temperature, both in solution or on storing as a crude foam, to approximately a 1:1 mixture of isomers. The first-formed, major isomer can be isolated from the mixture by crystallization from nitromethane solution.\nA solution of the mixture of 9,12-epoxy isomers in nitromethane (2 mL) deposited a large, crystalline mass on standing at room temperature for several days. The mixture was diluted with nitromethane (10 mL) and filtered to remove the solid portion, which was washed with nitromethane (2 mL) and dried under high vacuum. The white solid thus obtained (0.9 g) was shown by ^1 H NMR spectroscopy to be the major 9,12-epoxy isomer which is initially formed in the Beckmann rearrangement reaction.",
  "note": "For at least one compound, name, drawing or mass did not settle the structure.",
  "data": [
    {"molecule": "CC[C@H]1OC(=O)[C@H](C)[C@@H](O[C@H]2C[C@@](C)(OC)[C@@H](O)[C@H](C)O2)[C@H](C)[C@@H](O[C@@H]2O[C@H](C)C[C@H](N(C)C)[C@H]2O)[C@](C)(O)C[C@@H](C)N=C2O[C@@]1(C)[C@H](O)[C@H]2C", "note": "(single isomer, unassigned; isomer 9) [crystalline isomer, 9-deoxo-12-deoxy-9,12-epoxy-8a,9-didehydro-8a-aza-8a-homoerythromycin A]", "values": [
      {"measurement": "ratio of isomers after isomerization", "value": "1:1"}
    ]}
  ]
}
